# Laboratory results from PubChem BioAssay AID1671190 (National Center for Advancing Translational Sciences (NCATS), 2021).
# Protein sequences, listed by entry. Tags and fused reporters are not part of them.
# UniProt P18054, whole entry, looked up: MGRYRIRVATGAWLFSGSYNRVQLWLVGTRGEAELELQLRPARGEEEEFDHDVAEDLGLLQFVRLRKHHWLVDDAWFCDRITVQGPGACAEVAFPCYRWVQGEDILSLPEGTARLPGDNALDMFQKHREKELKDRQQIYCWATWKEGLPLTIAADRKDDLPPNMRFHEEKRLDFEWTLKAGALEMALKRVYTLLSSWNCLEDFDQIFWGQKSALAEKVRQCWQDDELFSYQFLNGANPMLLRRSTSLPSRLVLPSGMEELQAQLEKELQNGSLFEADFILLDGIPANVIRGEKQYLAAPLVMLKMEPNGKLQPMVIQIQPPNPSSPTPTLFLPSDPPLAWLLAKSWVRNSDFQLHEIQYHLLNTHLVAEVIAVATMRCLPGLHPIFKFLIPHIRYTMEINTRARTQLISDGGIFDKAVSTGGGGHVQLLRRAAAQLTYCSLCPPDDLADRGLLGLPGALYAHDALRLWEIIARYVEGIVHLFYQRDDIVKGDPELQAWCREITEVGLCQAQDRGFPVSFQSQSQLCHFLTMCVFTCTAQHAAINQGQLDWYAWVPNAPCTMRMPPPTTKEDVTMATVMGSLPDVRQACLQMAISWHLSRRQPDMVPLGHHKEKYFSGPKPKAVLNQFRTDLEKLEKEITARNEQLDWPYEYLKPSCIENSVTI
# Values joined by “and” are separate entries in the source; they are usually repeats but may differ in a detail not shown here. Identical values can stand only once. The whole screen tested about 580,000 compounds, of which about 6,100 (1.1%) were called active. The shares of active, inactive and inconclusive entries below differ from those in the screen. Calls follow the shape of the dose curve; as a rule, active = well fitted inhibition curve with a large enough effect; inconclusive = small, poorly fitted or top-dose-only effect, or another doubt; inactive = no such curve, though single readings can be large or run the other way. Where the call is inconclusive, the potency comes from a doubtful curve fit.
# Molecular target: Polyunsaturated fatty acid lipoxygenase ALOX12 (Homo sapiens) (UniProt P18054)
# Test: Primary qHTS assay for inhibitors of human arachidonate 12S-lipoxygenase (ALOX12): Round 2
# Settings: purified 12hLO, xylenol orange hydroperoxide absorbance; activity change, negative = inhibition: at 108 µM (top of the series) unless noted
# In short: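 Hydroperoxide product was detected by ferrous iron/xylenol orange as the 573 to 405 nm absorbance ratio. Arachidonic acid at 40 uM (final) was turned over for 30 min at room temperature by 150 nM human 12hLO, pH 7.0 Hepes buffer, after 15 min compound preincubation.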
# % is scaled to controls: 0 for no effect and ±100 for the full control effect; potency is read from the fitted curve at half-maximal effect.
SMILES,Potency,"activity change, negative = inhibition"
C=CCOc1ccc(-c2n[nH]c(=S)o2)cc1,"inconclusive: 44.7 µM [inhibitor, partial curve, poor fit]",–
CCOc1ccc(NC(=O)C2CCN(c3nnc(C)c4c(C)n(-c5ccccc5)nc34)CC2)cc1,"inconclusive: 126 µM [inhibitor, partial curve, poor fit]",–
O=C(Cn1c(SCC(=O)NC2CCCC2)nnc1-c1ccncc1)Nc1ccc2c(c1)OCO2,–,inactive: 0%
CS(=O)(=O)N(Cc1cccnc1)C1CN(C(=O)Nc2ccc3c(c2)OCCO3)C1,–,inactive: -3.8%
Cc1ccncc1-c1c(C)nn2c1N(C(=O)c1scnc1C)CCC2,"inconclusive: 70.8 µM [inhibitor, full curve, poor fit]",–
Cc1ccc(C2Nc3cc(C)c(C)cc3-n3c(-c4ccccc4)c4c(=O)n(C)c(=O)n(C)c4c32)o1 (centres undefined),–,inconclusive: -44.3% [inhibitor]
O=C(Nc1nnc(-c2ccc(Cl)cc2)o1)c1ccccc1Br,"inconclusive: 35.5 µM [inhibitor, partial curve, poor fit]",–
Cc1cccc(-n2c(CNC(=O)c3ccccc3)nnc2SCC(=O)Nc2nccs2)c1,"inconclusive: 50.1 µM [inhibitor, partial curve, poor fit]",–
Cc1c(NC(=S)NC(=O)CSc2ccc(Cl)cc2)cccc1C(=O)O,"inconclusive: 44.7 µM [inhibitor, partial curve, poor fit]",–
O=C(NCc1ccccc1)c1ccc(-c2csc(C3CC3)n2)cc1,–,inactive: -8.84%
C[C@@H]1C(=O)O[C@H]2[C@H]1CC[C@@]1(C)Cc3sc(NC(=O)c4c(F)cccc4F)nc3[C@@H](C)[C@H]21,–,inactive: 4.88%
C=C(C)CSc1nc2c(c(=O)[nH]c(=O)n2C)n1CCCc1ccccc1,–,inactive: -11.8%
Cn1nc(-c2ccccn2)nc2c(=O)n(C)c(=O)nc1-2,"inconclusive: 44.7 µM [inhibitor, partial curve]",–
Cc1ccc(NC(=O)Cn2nc(-c3cccs3)oc2=O)cc1C,"inconclusive: 63.1 µM [inhibitor, partial curve, poor fit]",–
COC(=O)c1ccc(NS(=O)(=O)NC(=O)c2c[nH]c3ccccc23)cc1,"inconclusive: 31.6 µM [inhibitor, partial curve]",–
O=C(c1nc2nc(-c3ccco3)cc(C(F)(F)F)n2n1)N1CCOCC1,"inconclusive: 44.7 µM [inhibitor, partial curve, poor fit]",–
CC1(C)CSC(=S)N1S(=O)(=O)c1ccccc1,"inconclusive: 3.98 µM [inhibitor, full curve, poor fit]",–
O=C1CC(=C2c3ccccc3-c3ccccc32)C(=O)N1CCN1CCN(c2cccc(Cl)c2)CC1,"inconclusive: 5.62 µM [inhibitor, full curve]",–
CCc1nc(SC)ncc1C(=O)N1CCN(c2cc(Cl)ccc2C)CC1,"inconclusive: 1.12 µM [inhibitor, full curve, poor fit]",–
Cc1ccc(NC(=O)C2(NC(=O)c3cccc(N4C(=O)CSC4c4ccccc4)c3)CCCCC2)cc1 (centres undefined),–,inactive: -11.9%
CN(Cc1ccc(C(F)(F)F)cc1)C(=O)CCc1c[nH]c2ccccc12,"inconclusive: 39.8 µM [inhibitor, partial curve, poor fit]",–
Cc1cccc(N2CCN(C(=O)c3cccs3)CC2)c1C,"inconclusive: 35.5 µM [inhibitor, partial curve, poor fit]",–

SMILES,Potency,"activity change, negative = inhibition"
Cc1ccc(-c2nnn(CC(=O)N(CCO)C(C(=O)NC3CCCCC3)c3ccncc3)n2)o1 (centres undefined),–,inactive: 0.697%
CNc1ccc(Br)cc(C(=O)/C=C/c2ccc(OC)cc2OC)c1=O,"inconclusive: 10 µM [inhibitor, full curve]",–
CCC(=O)c1ccc(OCC(O)CNCCc2ccc(Cl)cc2)cc1 (centres undefined),"inconclusive: 35.5 µM [inhibitor, partial curve, poor fit]",–
CC(C)(C)[C@@H]1COC(=O)[C@@H](Cc2ccc(F)cc2)CC/C=C\C[C@@H](CC(=O)N(CCO)Cc2ccccc2)C(=O)N1,–,inactive: 8.67%
Cc1cc(Cl)ccc1NC(=S)NCC(C)C,"inconclusive: 56.2 µM [inhibitor, partial curve, poor fit]",–
COC(=O)C1=C(C)OC(=O)C1(NC(=O)c1ccccc1)C(F)(F)F (centres undefined),"inconclusive: 35.5 µM [inhibitor, partial curve, poor fit]",–
CCNc1ccc(S(=O)(=O)N(C)C)cc1[N+](=O)[O-],active: 44.7 µM,–
O=c1nc2n(c3sc4c(c13)CCCC4)C(CBr)CS2 (centres undefined),"inconclusive: 35.5 µM [inhibitor, partial curve, poor fit]",–
CCc1nc(NCCCOC)c(C#N)c2c1CCCC2,–,inactive: 60.2%
CN(Cc1cnc2nc(N)nc(N)c2n1)c1ccc(C(=O)N[C@@H](CCC(=O)O)C(=O)O)cc1,"inconclusive: 39.8 µM [inhibitor, partial curve, poor fit] and inconclusive: 6.85 µM [inhibitor, partial curve, poor fit]",–
CCCn1c2ccccc2c2cnn(CC(=O)NCC3CCN(Cc4ccc(F)cc4)CC3)c(=O)c21,"inconclusive: 79.4 µM [inhibitor, partial curve, poor fit]",–
Cc1ccc(-n2nc(C)c([C@@H]3C=C[C@@H](NCc4ccc(N(C)C)cc4)C3)c2C)cc1Cl,"inconclusive: 63.1 µM [inhibitor, partial curve, poor fit]",–
Cn1c(SCc2nc3ccccc3c(=O)[nH]2)nnc1-c1cccnc1,–,inactive: -0.816%
Cc1cnc(SCc2ccccn2)nc1C1CCCN(C(=O)c2cccc(-c3cccc(F)c3)c2)C1 (centres undefined),"inconclusive: 112 µM [inhibitor, single point]",–
COc1cc(C2C(C#N)=C(N)Oc3cc(C)n(CCN4CCOCC4)c(=O)c32)cc(OC)c1OC (centres undefined),"inconclusive: 112 µM [inhibitor, single point]",–
CCc1nnc(NC(=O)CSc2nncc(=O)n2N)s1,–,inactive: -9.84%
Cc1cc(SCC(=O)N(C)C2CCCCC2)nc2ccccc12,"inconclusive: 0.199 µM [inhibitor, full curve, poor fit]",–
OC(COc1cccc2ccccc12)CN1CCCC1 (centres undefined),–,inactive: 35.3%
COc1ccc2cc(C(=O)NCC3COc4ccccc4O3)c(C)nc2c1 (centres undefined),–,inactive: 4.41%
O=C1[C@H]2CN(Cc3cc(Cl)ccc3F)C[C@H]2C(=O)N1CCc1ccccc1,"inconclusive: 44.7 µM [inhibitor, partial curve, poor fit]",–
NC(=O)c1sc2nc3c(cc2c1N)CCCCCC3,–,inactive: -27.7%
N#Cc1c2n(c(=O)n(CCOc3ccccc3F)c1=O)CCC2,"inconclusive: 89.1 µM [inhibitor, single point]",–

SMILES,Potency,"activity change, negative = inhibition"
COc1ccc(OC)c(C2CC(=O)N3CN(c4cccc(Cl)c4C)CSC3=C2C#N)c1 (centres undefined),active: 11.2 µM,–
CC(=O)c1cccc(N(C(=O)c2ccccn2)C(C(=O)NC2CCCCC2)c2ccccc2)c1 (centres undefined),"inconclusive: 100 µM [inhibitor, partial curve, poor fit]",–
O=C(N/N=C/c1ccc(O)c(O)c1O)/C(=C/c1ccc([N+](=O)[O-])cc1)NC(=O)c1ccccc1,"inconclusive: 14.1 µM [inhibitor, partial curve, poor fit]",–
CCC(CO)N(Cc1ccc(C)s1)C(=O)c1cn(CCN)nn1 (centres undefined),–,inactive: 22.7%
O=C(Nc1cccc(-c2nc3ccccc3s2)c1)[C@@H]1CCCN1C(=O)c1cccs1,active: 39.8 µM,–
Cc1ccc(S(=O)(=O)N2CCN(C(=O)CCNC(=O)c3ccccc3Cl)CC2)cc1,–,inconclusive: -30.2% [inhibitor]
N#Cc1c(NC(=O)Cn2nc(C(F)(F)F)c3c2CCCC3)sc2c1CCC2,"inconclusive: 44.7 µM [inhibitor, partial curve]",–
CC(C)(C)c1ccc(/C=N/NC(=O)Cc2c[nH]c3ccccc23)cc1,"inconclusive: 141 µM [inhibitor, single point]",–
CC(Oc1ccc2c(-c3ccccc3)cc(=O)oc2c1)c1ccccc1 (centres undefined),"inconclusive: 1.78 µM [inhibitor, full curve, poor fit]",–
CCOC(=O)c1oc2nc3c(cc2c1N)COC(C)(C)C3,"inconclusive: 31.6 µM [inhibitor, partial curve, poor fit]",–
COc1ccc(NC(=S)Nc2cc(-c3ccccc3)[nH]n2)cc1Cl,"inconclusive: 6.31 µM [inhibitor, full curve, poor fit]",–
COC(=O)[C@@H](NC(=O)c1cnc(C)cn1)C(C)C,"inconclusive: 3.55 µM [inhibitor, full curve]",–
CN1CCCN(S(=O)(=O)c2cccs2)c2ccccc21,"inconclusive: 28.2 µM [inhibitor, partial curve]",–
CCN1CCCC1CNC(=O)Cn1cc(C)c(=O)[nH]c1=O (centres undefined),"inconclusive: 44.7 µM [inhibitor, partial curve, poor fit]",–
CC(=O)N1CCc2c(sc3nc(SCC(C)C)n(-c4ccc(C)c(Cl)c4)c(=O)c23)C1,"inconclusive: 44.7 µM [inhibitor, partial curve, poor fit]",–
Cc1ccc2nc(-c3ccccc3)c(Cc3ccccn3)n2c1,"inconclusive: 3.55 µM [inhibitor, full curve, poor fit]",–
O=C(CC1COCCN1)N1CCN(C(=O)c2ccco2)CC1 (centres undefined),–,inactive: 22%
O=C(NCc1ccccn1)C1c2ccccc2C(=O)N(C2CCCCC2)C12CCCCC2 (centres undefined),–,inactive: 39.1%
Cc1ccc(NC(=O)CSc2nc3ccccc3nc2N2CCOCC2)c(C)c1,–,inactive: 9.59%
COc1ccc(-c2noc(-c3cccn3CC(=O)Nc3ccccc3OC)n2)cc1F,"inconclusive: 79.4 µM [inhibitor, partial curve, poor fit]",–
